At least one result comes from cells or an extract, where the contact may be indirect.
Legend:
[1] = target: PD-1 (endogenous, on HEL 92.1.7 cells) (Homo sapiens) (UniProt Q15116); assay: flow cytometry; settings: protein on the cell surface, single-stranded DNA
[2] = target: PD-1 (endogenous, in total cell lysate of HEL 92.1.7 / KG-1) (Homo sapiens) (UniProt Q15116); assay: BLI; settings: per-concentration fits 0.727, 0.691, 0.555, 0.286 nM, same buffer, 25 C, protein in an extract, label: 5' biotin (BLI) or FAM (flow), single-stranded DNA

Chains of the proteins cited; added tags and fusions are not shown. Residues count along the entry.
UniProt Q15116, 25-288: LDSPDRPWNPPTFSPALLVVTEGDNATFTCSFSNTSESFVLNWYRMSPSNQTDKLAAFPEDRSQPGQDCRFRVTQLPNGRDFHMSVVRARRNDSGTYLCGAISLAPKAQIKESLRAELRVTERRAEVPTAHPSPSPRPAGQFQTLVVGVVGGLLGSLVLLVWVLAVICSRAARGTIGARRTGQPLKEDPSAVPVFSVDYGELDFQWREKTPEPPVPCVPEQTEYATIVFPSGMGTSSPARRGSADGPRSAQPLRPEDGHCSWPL

## CCGTATACATACCTGATAGCGTATGCGAGGAGAGGGATTGGTGTGGTGGGGCTCTCTCAGTAGGTGCATAAGCGCATGCATGC [15-120-298]
[1]; label: fluorescein
  binding result: binds

## CCGTATACATACCTGATAGCGTATGCGAGGAAGTGGGCTTGGTGTGGTGGGCTTCTCTCAGTAGGTGCATAAGCGCATGCATGC [fpf2 (10-150-373)]
[1]; label: 5' biotin (BLI) or FAM (flow)
  binding result: binds
[2]
  binding result: binds
